For test [1], the target named is KLF6 (human (endogenous in HCT15-FR)) (UniProt Q99612). Kind of test: co-IP; co-immunoprecipitation as previously described (ref. 30), HCT15-FR cells; which partner was precipitated is not told.
In the next test the target is T1, Flag-FOSL2 (UniProt P15408).
T1 sequence: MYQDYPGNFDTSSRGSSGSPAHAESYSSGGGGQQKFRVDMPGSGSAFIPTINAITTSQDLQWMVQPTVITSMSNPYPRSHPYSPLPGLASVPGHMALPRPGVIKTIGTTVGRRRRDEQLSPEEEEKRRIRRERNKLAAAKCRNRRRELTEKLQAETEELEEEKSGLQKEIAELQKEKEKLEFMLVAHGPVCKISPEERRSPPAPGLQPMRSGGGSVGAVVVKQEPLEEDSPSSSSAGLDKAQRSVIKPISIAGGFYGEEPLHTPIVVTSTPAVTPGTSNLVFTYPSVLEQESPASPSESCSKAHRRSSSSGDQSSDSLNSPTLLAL
Description: co-IP; HCT15-FR cells transfected with Flag-FOSL2; proteins immunoprecipitated with a Flag monoclonal antibody.

The chains behind the UniProt entries cited, without tags or fusion partners.
UniProt Q99612: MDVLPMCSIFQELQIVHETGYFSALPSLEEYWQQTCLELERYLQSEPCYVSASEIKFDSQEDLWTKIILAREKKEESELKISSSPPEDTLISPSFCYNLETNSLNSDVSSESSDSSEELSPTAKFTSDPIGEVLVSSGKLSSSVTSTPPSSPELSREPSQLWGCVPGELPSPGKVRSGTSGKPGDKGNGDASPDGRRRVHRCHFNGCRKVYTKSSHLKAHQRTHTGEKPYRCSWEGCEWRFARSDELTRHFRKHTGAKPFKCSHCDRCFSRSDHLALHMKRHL
UniProt Q09472: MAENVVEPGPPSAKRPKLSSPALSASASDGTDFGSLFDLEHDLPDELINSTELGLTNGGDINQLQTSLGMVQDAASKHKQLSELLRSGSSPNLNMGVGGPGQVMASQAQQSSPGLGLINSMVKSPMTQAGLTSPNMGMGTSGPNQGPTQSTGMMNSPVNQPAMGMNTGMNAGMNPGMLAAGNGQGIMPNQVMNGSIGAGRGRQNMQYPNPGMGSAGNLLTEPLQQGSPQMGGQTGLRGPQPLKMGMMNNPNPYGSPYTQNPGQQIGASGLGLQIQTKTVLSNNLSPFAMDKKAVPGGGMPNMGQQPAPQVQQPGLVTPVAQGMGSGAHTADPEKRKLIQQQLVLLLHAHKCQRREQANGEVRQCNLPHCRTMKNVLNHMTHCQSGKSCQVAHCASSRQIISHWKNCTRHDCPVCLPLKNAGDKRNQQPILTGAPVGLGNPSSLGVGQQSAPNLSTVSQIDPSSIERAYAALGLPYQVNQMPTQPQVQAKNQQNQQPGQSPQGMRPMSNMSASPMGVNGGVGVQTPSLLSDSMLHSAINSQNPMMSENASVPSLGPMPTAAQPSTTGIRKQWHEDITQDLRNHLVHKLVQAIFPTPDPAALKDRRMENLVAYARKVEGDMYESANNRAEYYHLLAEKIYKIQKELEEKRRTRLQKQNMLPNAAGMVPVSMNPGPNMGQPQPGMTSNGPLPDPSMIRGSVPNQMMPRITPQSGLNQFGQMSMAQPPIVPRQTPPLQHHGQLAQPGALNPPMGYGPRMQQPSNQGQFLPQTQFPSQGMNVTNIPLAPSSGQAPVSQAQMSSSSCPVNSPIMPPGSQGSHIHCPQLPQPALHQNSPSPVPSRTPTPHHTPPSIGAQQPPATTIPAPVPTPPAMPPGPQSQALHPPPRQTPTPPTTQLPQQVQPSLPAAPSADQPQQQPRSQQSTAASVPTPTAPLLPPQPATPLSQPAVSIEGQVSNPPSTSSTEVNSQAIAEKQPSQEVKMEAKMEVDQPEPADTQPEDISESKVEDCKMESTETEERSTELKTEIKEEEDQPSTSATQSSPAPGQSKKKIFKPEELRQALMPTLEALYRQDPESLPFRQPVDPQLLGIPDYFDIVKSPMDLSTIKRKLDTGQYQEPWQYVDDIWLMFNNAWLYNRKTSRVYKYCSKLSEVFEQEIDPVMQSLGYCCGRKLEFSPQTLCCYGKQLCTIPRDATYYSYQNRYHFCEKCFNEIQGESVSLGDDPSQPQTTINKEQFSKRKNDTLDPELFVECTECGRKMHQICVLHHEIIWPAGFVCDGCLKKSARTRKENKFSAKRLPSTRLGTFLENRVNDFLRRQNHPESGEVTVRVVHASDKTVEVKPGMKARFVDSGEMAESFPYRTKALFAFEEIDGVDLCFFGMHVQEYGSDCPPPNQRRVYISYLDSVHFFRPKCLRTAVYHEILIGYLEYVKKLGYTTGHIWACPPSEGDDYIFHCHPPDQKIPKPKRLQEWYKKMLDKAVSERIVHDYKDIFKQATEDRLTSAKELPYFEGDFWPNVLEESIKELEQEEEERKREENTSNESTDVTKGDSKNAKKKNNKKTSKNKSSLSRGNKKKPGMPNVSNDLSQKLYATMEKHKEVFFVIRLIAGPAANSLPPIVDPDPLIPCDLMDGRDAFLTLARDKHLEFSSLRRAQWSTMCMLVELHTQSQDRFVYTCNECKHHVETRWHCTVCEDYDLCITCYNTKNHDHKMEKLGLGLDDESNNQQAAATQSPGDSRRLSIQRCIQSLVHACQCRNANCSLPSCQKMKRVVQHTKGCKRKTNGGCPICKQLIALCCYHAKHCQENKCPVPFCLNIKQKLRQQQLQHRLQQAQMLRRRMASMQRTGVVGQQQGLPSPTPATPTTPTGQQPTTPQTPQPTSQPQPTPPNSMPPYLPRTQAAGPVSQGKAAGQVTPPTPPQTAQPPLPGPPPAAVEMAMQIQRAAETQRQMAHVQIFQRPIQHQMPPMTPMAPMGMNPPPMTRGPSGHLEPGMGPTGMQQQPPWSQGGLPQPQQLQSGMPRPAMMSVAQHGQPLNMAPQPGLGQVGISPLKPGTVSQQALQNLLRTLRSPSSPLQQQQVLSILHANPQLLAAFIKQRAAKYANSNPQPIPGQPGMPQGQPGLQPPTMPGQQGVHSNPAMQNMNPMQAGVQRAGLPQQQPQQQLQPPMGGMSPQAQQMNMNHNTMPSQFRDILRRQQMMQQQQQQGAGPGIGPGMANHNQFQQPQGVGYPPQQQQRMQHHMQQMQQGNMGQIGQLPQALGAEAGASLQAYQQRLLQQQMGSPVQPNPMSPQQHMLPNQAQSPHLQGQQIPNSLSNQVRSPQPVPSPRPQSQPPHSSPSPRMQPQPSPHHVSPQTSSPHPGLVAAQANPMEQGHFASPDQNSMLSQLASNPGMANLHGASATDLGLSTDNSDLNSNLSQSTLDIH
UniProt Q92831: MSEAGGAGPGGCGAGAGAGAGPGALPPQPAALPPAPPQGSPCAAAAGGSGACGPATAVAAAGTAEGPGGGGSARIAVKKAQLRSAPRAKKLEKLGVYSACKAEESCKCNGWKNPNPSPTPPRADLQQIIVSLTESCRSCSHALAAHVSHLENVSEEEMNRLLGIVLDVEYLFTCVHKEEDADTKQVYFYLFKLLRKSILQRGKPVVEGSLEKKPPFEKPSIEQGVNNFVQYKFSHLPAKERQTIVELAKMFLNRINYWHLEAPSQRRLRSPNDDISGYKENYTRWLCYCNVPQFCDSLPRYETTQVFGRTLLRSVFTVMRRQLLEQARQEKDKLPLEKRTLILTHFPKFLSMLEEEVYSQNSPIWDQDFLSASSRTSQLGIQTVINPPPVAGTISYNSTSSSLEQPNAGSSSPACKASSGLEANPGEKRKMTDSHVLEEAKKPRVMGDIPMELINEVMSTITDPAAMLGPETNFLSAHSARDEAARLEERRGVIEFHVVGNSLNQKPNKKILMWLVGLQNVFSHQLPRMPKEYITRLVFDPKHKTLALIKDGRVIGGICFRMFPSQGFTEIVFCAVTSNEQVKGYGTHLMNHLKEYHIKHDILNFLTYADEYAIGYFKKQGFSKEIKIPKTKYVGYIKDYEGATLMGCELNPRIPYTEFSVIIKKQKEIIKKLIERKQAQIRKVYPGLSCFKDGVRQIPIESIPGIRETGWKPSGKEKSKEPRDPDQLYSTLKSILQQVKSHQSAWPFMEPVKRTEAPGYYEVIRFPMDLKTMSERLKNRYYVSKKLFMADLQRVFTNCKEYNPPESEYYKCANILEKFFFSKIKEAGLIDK
UniProt Q9Y6J9: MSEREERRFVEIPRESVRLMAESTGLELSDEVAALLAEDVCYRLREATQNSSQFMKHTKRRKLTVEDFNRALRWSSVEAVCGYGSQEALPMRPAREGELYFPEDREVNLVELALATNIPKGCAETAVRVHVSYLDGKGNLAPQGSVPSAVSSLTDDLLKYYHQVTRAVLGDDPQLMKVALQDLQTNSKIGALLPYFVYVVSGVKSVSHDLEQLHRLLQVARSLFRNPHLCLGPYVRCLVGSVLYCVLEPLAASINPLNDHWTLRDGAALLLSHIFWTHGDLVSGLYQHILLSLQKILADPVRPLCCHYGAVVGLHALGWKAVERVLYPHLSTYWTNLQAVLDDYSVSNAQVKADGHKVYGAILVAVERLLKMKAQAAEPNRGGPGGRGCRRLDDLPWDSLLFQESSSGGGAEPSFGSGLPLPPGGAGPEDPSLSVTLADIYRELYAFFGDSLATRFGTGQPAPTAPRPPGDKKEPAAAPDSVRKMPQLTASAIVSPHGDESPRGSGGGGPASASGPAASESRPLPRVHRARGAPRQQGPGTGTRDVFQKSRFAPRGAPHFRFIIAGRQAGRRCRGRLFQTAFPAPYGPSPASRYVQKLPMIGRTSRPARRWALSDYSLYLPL

These are yes or no findings as the source states them, for the method shown. Binding seen in cells or lysates may run through a third protein. Some binding calls cover weakened binding; strength is not graded here. For some of these results: Sequences can lack the tags named with a protein.

Take p300 (from UniProt Q09472 1-2414): the binding entry in test [1] is “binds”.
As to KLF6 (from UniProt Q99612 1-283), in the test with Flag-FOSL2, the binding entry was “no binding”.
Regarding “p300/CBP-associated factor (PCAF) (from UniProt Q92831 1-832)”, the binding entry in test [1] is recorded as “binds”.
Same read-out and setting: in the case of TAF6L (from UniProt Q9Y6J9 1-622) it was “binds”.
